Measurements reported in PubChem BioAssay AID1259254 (NCATS, 2017)

- Test: 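Finding genes that stop cells copying their DNA twice in one cycle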 (primary screen)
- Cell system: human HCT116 colorectal cancer cells
- Reagents: single siRNA against human genes
- Duration: 3 days
- Detection: 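Imaged Hoechst DNA stain sorts each cell into a cycle phase by DNA amount; per plate, G2 fraction set to 0% for non-targeting and 100% for GMNN siRNA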
- Reading the numbers: G2 robust z-score and G2 cells, % of GMNN control: higher = more G2 cells, more excess DNA replication; raw share of cells in G2: higher = larger share of cells with G2 DNA content
- Call rule: 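An siRNA counts as active if its G2 robust z-score lies at least 5 MADs above the screen median; here such calls match roughly 38% of GMNN control or more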
Here is a random part of about 59,000 deposited reagents. In the full data, about 1,550 (2.6%) are marked active. 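G2 share is only a proxy for re-replication; each gene was hit by three separate siRNAs, and active genes were retested.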 The raw values are shown without normalisation. Unmarked entries are inactive. The numbers tell different reagents against one gene apart. No sequences are given here. The record does not give: the amount of reagent.

| gene | siRNA no. | G2 robust z-score | G2 cells, % of GMNN control | raw share of cells in G2 (%) |
| --- | --- | --- | --- | --- |
| CPT2 (carnitine palmitoyltransferase 2) | 1 | 1.72 | 15.1 | 10.5 |
| CPT2 (carnitine palmitoyltransferase 2) | 2 | 1.11 | 10.8 | 8.81 |
| CPT2 (carnitine palmitoyltransferase 2) | 3 | 0.951 | 9.66 | 7.42 |
| SLC35H1 | 1 | 0.595 | 7.15 | 6.89 |
| SLC35H1 | 2 | 3.81 | 29.8 | 19.5 |
| SLC35H1 | 3 | 2.38 | 19.7 | 11.4 |
| HTT (huntingtin) | 1 | 0.526 | 6.67 | 8.22 |
| HTT (huntingtin) | 2 | 5.42 (active) | 41.1 | 20 |
| HTT (huntingtin) | 3 | -0.0274 | 2.77 | 5.22 |
| NCDN (neurochondrin) | 1 | 3.31 | 26.2 | 15.3 |
| NCDN (neurochondrin) | 2 | -0.27 | 1.07 | 4.58 |
| NCDN (neurochondrin) | 3 | -0.746 | -2.28 | 2.32 |
| LORICRIN (loricrin cornified envelope precursor protein) | 1 | 1.05 | 10.3 | 9.36 |
| LORICRIN (loricrin cornified envelope precursor protein) | 2 | 1.5 | 13.5 | 9.56 |
| LORICRIN (loricrin cornified envelope precursor protein) | 3 | 0.332 | 5.3 | 5.27 |
| EPHX4 (epoxide hydrolase 4) | 1 | 2.5 | 20.5 | 12.2 |
| EPHX4 (epoxide hydrolase 4) | 2 | -0.97 | -3.85 | 3.08 |
| EPHX4 (epoxide hydrolase 4) | 3 | 0.575 | 7.01 | 9.3 |
| PALB2 (partner and localizer of BRCA2) | 1 | -0.156 | 1.87 | 5.22 |
| PALB2 (partner and localizer of BRCA2) | 2 | -0.654 | -1.63 | 3.59 |
| PALB2 (partner and localizer of BRCA2) | 3 | -0.484 | -0.439 | 2.26 |
| C8orf34 (chromosome 8 open reading frame 34) | 1 | 1.7 | 14.9 | 10.1 |
| C8orf34 (chromosome 8 open reading frame 34) | 2 | -0.53 | -0.763 | 3.1 |
| C8orf34 (chromosome 8 open reading frame 34) | 3 | -0.882 | -3.24 | 0.872 |
| LINC00312 (long independently transcribed non-coding RNA 312) | 1 | -0.364 | 0.41 | 4.01 |
| LINC00312 (long independently transcribed non-coding RNA 312) | 2 | 1.88 | 16.2 | 10.7 |
| LINC00312 (long independently transcribed non-coding RNA 312) | 3 | 0.264 | 4.83 | 4.77 |
| CLASRP (CLK4 associating serine/arginine rich protein) | 1 | 0.491 | 6.42 | 7.5 |
| CLASRP (CLK4 associating serine/arginine rich protein) | 2 | -0.519 | -0.684 | 3.85 |
| CLASRP (CLK4 associating serine/arginine rich protein) | 3 | 2.89 | 23.3 | 11.9 |
| SERBP1 (SERPINE1 mRNA binding protein 1) | 1 | -0.192 | 1.62 | 4.72 |
| SERBP1 (SERPINE1 mRNA binding protein 1) | 2 | -0.00229 | 2.95 | 4.96 |
| SERBP1 (SERPINE1 mRNA binding protein 1) | 3 | 1.19 | 11.3 | 11.3 |
| COXFA4L3 (cytochrome c oxidase associated subunit FA4L3) | 1 | -0.636 | -1.5 | 1.95 |
| COXFA4L3 (cytochrome c oxidase associated subunit FA4L3) | 2 | 1.15 | 11.1 | 7.79 |
| COXFA4L3 (cytochrome c oxidase associated subunit FA4L3) | 3 | 1.35 | 12.4 | 7.14 |
| CHRD (chordin) | 1 | -0.774 | -2.48 | 4.03 |
| CHRD (chordin) | 2 | -0.299 | 0.862 | 4.24 |
| CHRD (chordin) | 3 | 2.05 | 17.4 | 9.49 |
| TRAPPC2 (trafficking protein particle complex subunit 2) | 1 | 4.55 | 35 | 19.9 |
| TRAPPC2 (trafficking protein particle complex subunit 2) | 2 | -1.18 | -5.35 | 2.11 |
| TRAPPC2 (trafficking protein particle complex subunit 2) | 3 | -0.395 | 0.187 | 3.42 |
| DAB1 (DAB adaptor protein 1) | 1 | 0.647 | 7.52 | 7.74 |
| DAB1 (DAB adaptor protein 1) | 2 | 2.04 | 17.3 | 11.2 |
| DAB1 (DAB adaptor protein 1) | 3 | -1.31 | -6.28 | 1.93 |

Laid out differently: 12 of the entries above
{"gene":"NCDN (neurochondrin)","siRNA no.":2,"G2 robust z-score":-0.27,"G2 cells, % of GMNN control":1.07,"raw share of cells in G2 (%)":4.58}
{"gene":"NCDN (neurochondrin)","siRNA no.":3,"G2 robust z-score":-0.746,"G2 cells, % of GMNN control":-2.28,"raw share of cells in G2 (%)":2.32}
{"gene":"LORICRIN (loricrin cornified envelope precursor protein)","siRNA no.":1,"G2 robust z-score":1.05,"G2 cells, % of GMNN control":10.3,"raw share of cells in G2 (%)":9.36}
{"gene":"LORICRIN (loricrin cornified envelope precursor protein)","siRNA no.":2,"G2 robust z-score":1.5,"G2 cells, % of GMNN control":13.5,"raw share of cells in G2 (%)":9.56}
{"gene":"LORICRIN (loricrin cornified envelope precursor protein)","siRNA no.":3,"G2 robust z-score":0.332,"G2 cells, % of GMNN control":5.3,"raw share of cells in G2 (%)":5.27}
{"gene":"EPHX4 (epoxide hydrolase 4)","siRNA no.":1,"G2 robust z-score":2.5,"G2 cells, % of GMNN control":20.5,"raw share of cells in G2 (%)":12.2}
{"gene":"EPHX4 (epoxide hydrolase 4)","siRNA no.":2,"G2 robust z-score":-0.97,"G2 cells, % of GMNN control":-3.85,"raw share of cells in G2 (%)":3.08}
{"gene":"EPHX4 (epoxide hydrolase 4)","siRNA no.":3,"G2 robust z-score":0.575,"G2 cells, % of GMNN control":7.01,"raw share of cells in G2 (%)":9.3}
{"gene":"PALB2 (partner and localizer of BRCA2)","siRNA no.":1,"G2 robust z-score":-0.156,"G2 cells, % of GMNN control":1.87,"raw share of cells in G2 (%)":5.22}
{"gene":"PALB2 (partner and localizer of BRCA2)","siRNA no.":2,"G2 robust z-score":-0.654,"G2 cells, % of GMNN control":-1.63,"raw share of cells in G2 (%)":3.59}
{"gene":"PALB2 (partner and localizer of BRCA2)","siRNA no.":3,"G2 robust z-score":-0.484,"G2 cells, % of GMNN control":-0.439,"raw share of cells in G2 (%)":2.26}
{"gene":"C8orf34 (chromosome 8 open reading frame 34)","siRNA no.":1,"G2 robust z-score":1.7,"G2 cells, % of GMNN control":14.9,"raw share of cells in G2 (%)":10.1}

The list goes on.
| gene | siRNA no. | G2 robust z-score | G2 cells, % of GMNN control | raw share of cells in G2 (%) |
| --- | --- | --- | --- | --- |
| LOC100288510 | 1 | 3.29 | 26.1 | 13.3 |
| LOC100288510 | 2 | -0.957 | -3.76 | 2.02 |
| LOC100288510 | 3 | 0.407 | 5.83 | 7.21 |
| SLIRP-OT1 (SLIRP overlapping transcript 1) | 1 | -0.675 | -1.78 | 2.73 |
| SLIRP-OT1 (SLIRP overlapping transcript 1) | 2 | -0.801 | -2.67 | 2.67 |
| SLIRP-OT1 (SLIRP overlapping transcript 1) | 3 | 0.575 | 7.01 | 5.76 |
| SLC2A11 | 1 | -0.5 | -0.552 | 5.42 |
| SLC2A11 | 2 | -0.679 | -1.81 | 3.71 |
| SLC2A11 | 3 | -0.344 | 0.547 | 4.42 |
| MAP7D2 (MAP7 domain containing 2) | 1 | -0.772 | -2.46 | 2.68 |
| MAP7D2 (MAP7 domain containing 2) | 2 | -0.711 | -2.03 | 2.43 |
| MAP7D2 (MAP7 domain containing 2) | 3 | -0.08 | 2.4 | 3.96 |
| PYCR1 (pyrroline-5-carboxylate reductase 1) | 1 | 1.29 | 12 | 8.14 |
| PYCR1 (pyrroline-5-carboxylate reductase 1) | 2 | -0.0881 | 2.35 | 5.58 |
| PYCR1 (pyrroline-5-carboxylate reductase 1) | 3 | -0.512 | -0.633 | 4.76 |
| SMCO1 (single-pass membrane protein with coiled-coil domains 1) | 1 | 2.37 | 19.6 | 10.7 |
| SMCO1 (single-pass membrane protein with coiled-coil domains 1) | 2 | -0.66 | -1.67 | 2.56 |
| SMCO1 (single-pass membrane protein with coiled-coil domains 1) | 3 | 2.79 | 22.6 | 10.4 |
| MFF (mitochondrial fission factor) | 1 | -1.39 | -6.84 | 1.65 |
| MFF (mitochondrial fission factor) | 2 | -0.57 | -1.04 | 3.96 |
| MFF (mitochondrial fission factor) | 3 | 0.856 | 8.99 | 5.88 |
| ASXL3 (ASXL transcriptional regulator 3) | 1 | -0.477 | -0.388 | 4.28 |
| ASXL3 (ASXL transcriptional regulator 3) | 2 | -0.732 | -2.18 | 3.35 |
| ASXL3 (ASXL transcriptional regulator 3) | 3 | -1.11 | -4.86 | 1.05 |
